{"source": "PubChem BioAssay AID330", "about": "(DTP/NCI, 2004)", "system": "P388 leukemia ip, CD2F1 mice, survival T/C", "test": "NCI In Vivo Anticancer Drug Screen. Data for tumor model P388 Leukemia (intraperitoneal) in CD2F1 (CDF1) mice", "conditions": "T/C endpoint: median survival time, higher T/C = longer survival", "note": "The list shows only some results of the screen, not a fair sample: it gathers tests that were run many times, whatever their T/C, doses with no T/C, and many T/C values between a quarter and a half above the control. Other doses and runs of a compound stand elsewhere. T/C is the treated group as % of the vehicle group. Some entries give survivors of the animals treated and no T/C: the source holds a T/C of zero for them, seemingly a mark for toxic or unscored doses. Some doses without a T/C left all or most animals alive at the check, yet need not have been tolerated: the source hardly ever lists a survival T/C far under the control, and the zero likely stands for such cases as well. Counts of survivors are from the toxicity check (mostly the fifth day) where no day follows; animals may have died later. Schedules are NCI's codes, read here as Q, the interval in days (D) or hours (H), X, the number of doses. Some structures stand for samples that the source files as different forms (salt, stereo form or complex); doses refer to the form tested. Some entries were tested several times; the results are listed from low to high. Additions like (4×) count equal records among those shown. For survival time, the PubChem record calls one and a half times the control and up active, and a quarter to a half above the control has no call in these data; cut-offs in other NCI protocols can differ. Some T/C values carry the count of animals alive at the toxicity check (mostly the fifth day); without a count, all were alive then.", "data": [{"smiles": "COc1cc(NS(C)(=O)=O)ccc1Nc1c2ccccc2nc2ccccc12", "values": [{"measurement": "T/C", "setting": "dose: 12.0 mg/kg/injection, schedule: Q04DX003 (ip), vehicle: saline with Tween-80, evaluated on day 60", "value": "157, 216, 250 % of control"}, {"measurement": "T/C", "setting": "dose: 12.0 mg/kg/injection, schedule: Q04DX003 (ip), vehicle: water", "value": "125 % of control"}, {"measurement": "T/C", "setting": "dose: 13.0 mg/kg/injection, schedule: Q04DX003 (ip), vehicle: saline with Tween-80, evaluated on day 44", "value": "173 % of control"}, {"measurement": "T/C", "setting": "dose: 13.0 mg/kg/injection, schedule: Q04DX003 (ip), vehicle: saline with Tween-80, evaluated on day 45", "value": "146, 152, 161, 166, 180, 205 % of control"}, {"measurement": "T/C", "setting": "dose: 13.0 mg/kg/injection, schedule: Q04DX003 (ip), vehicle: saline with Tween-80, evaluated on day 47", "value": "167, 188, 189, 196 % of control"}, {"measurement": "T/C", "setting": "dose: 13.0 mg/kg/injection, schedule: Q04DX003 (ip), vehicle: saline with Tween-80, evaluated on day 48", "value": "157 % of control"}, {"measurement": "T/C", "setting": "dose: 13.0 mg/kg/injection, schedule: Q04DX003 (ip), vehicle: saline with Tween-80, evaluated on day 60", "value": "200, 216, 220 % of control"}, {"measurement": "T/C", "setting": "dose: 15.0 mg/kg/injection, schedule: Q04DX003 (ip), vehicle: saline with Tween-80, evaluated on day 5", "value": "188 and 262 % of control"}, {"measurement": "T/C", "setting": "dose: 15.0 mg/kg/injection, schedule: Q04DX003 (ip), vehicle: saline with Tween-80, evaluated on day 7", "value": "157 % of control"}, {"measurement": "T/C", "setting": "dose: 15.0 mg/kg/injection, schedule: Q04DX003 (ip), vehicle: saline with Tween-80, evaluated on day 60", "value": "154, 223, 250 % of control"}, {"measurement": "survivor count", "setting": "dose: 16.0 mg/kg/injection, schedule: Q01DX005 (ip), vehicle: other", "value": "5 of 5"}, {"measurement": "survivor count", "setting": "dose: 16.0 mg/kg/injection, schedule: Q01DX005 (oral), vehicle: other", "value": "5 of 6"}, {"measurement": "T/C", "setting": "dose: 16.0 mg/kg/injection, schedule: Q04DX003 (oral), vehicle: other", "value": "130 and 132 % of control"}, {"measurement": "survivor count", "setting": "dose: 20.0 mg/kg/injection, schedule: Q04DX002 (ip), vehicle: clinical formulation", "value": "4 of 6"}, {"measurement": "T/C", "setting": "dose: 20.0 mg/kg/injection, schedule: Q04DX002 (ip), vehicle: other, evaluated on day 30", "value": "90, 91 [5 of 6 alive], 95 [5 of 6 alive], 142, 175, 191 [4 of 6 alive], 200, 203 [5 of 6 alive], 205, 205 [5 of 6 alive], 211, 220, 229, 232 (2×), 234, 240 (2×), 245 [4 of 6 alive], 245 [5 of 6 alive], 248, 257, 259, 265 % of control"}, {"measurement": "T/C", "setting": "dose: 20.0 mg/kg/injection, schedule: Q04DX002 (ip), vehicle: other, evaluated on day 35", "value": "149 and 218 % of control"}, {"measurement": "T/C", "setting": "dose: 20.0 mg/kg/injection, schedule: Q04DX002 (ip), vehicle: other, evaluated on day 45", "value": "186 [7 of 8 alive], 200 [7 of 8 alive], 220 % of control"}, {"measurement": "T/C", "setting": "dose: 20.0 mg/kg/injection, schedule: Q04DX002 (ip), vehicle: other, evaluated on day 50", "value": "238 % of control"}, {"measurement": "survivor count", "setting": "dose: 20.0 mg/kg/injection, schedule: Q04DX002 (ip), vehicle: other", "value": "5 of 10, 5 of 8, 4 of 6, 4 of 5, 5 of 5"}, {"measurement": "T/C", "setting": "dose: 20.0 mg/kg/injection, schedule: Q04DX002 (ip), vehicle: saline with Tween-80", "value": "175, 190, 202, 203, 220 % of control"}, {"measurement": "survivor count", "setting": "dose: 20.0 mg/kg/injection, schedule: Q04DX003 (ip), vehicle: clinical formulation", "value": "3 of 8"}, {"measurement": "T/C", "setting": "dose: 20.0 mg/kg/injection, schedule: Q04DX003 (ip), vehicle: other, evaluated on day 5", "value": "258 % of control [6 of 7 alive]"}, {"measurement": "T/C", "setting": "dose: 20.0 mg/kg/injection, schedule: Q04DX003 (ip), vehicle: other, evaluated on day 30", "value": "208 % of control"}, {"measurement": "T/C", "setting": "dose: 20.0 mg/kg/injection, schedule: Q04DX003 (ip), vehicle: other, evaluated on day 40", "value": "301 % of control"}, {"measurement": "T/C", "setting": "dose: 20.0 mg/kg/injection, schedule: Q04DX003 (ip), vehicle: other, evaluated on day 45", "value": "102, 112, 195, 201 [7 of 8 alive], 206, 241, 243, 271 % of control"}, {"measurement": "T/C", "setting": "dose: 20.0 mg/kg/injection, schedule: Q04DX003 (ip), vehicle: other, evaluated on day 60", "value": "268 % of control"}, {"measurement": "survivor count", "setting": "dose: 20.0 mg/kg/injection, schedule: Q04DX003 (ip), vehicle: other", "value": "5 of 8, 6 of 8, 6 of 6"}, {"measurement": "T/C", "setting": "dose: 20.0 mg/kg/injection, schedule: Q04DX003 (ip), vehicle: saline with Tween-80, evaluated on day 7", "value": "172 % of control"}, {"measurement": "T/C", "setting": "dose: 20.0 mg/kg/injection, schedule: Q04DX003 (ip), vehicle: saline with Tween-80, evaluated on day 44", "value": "207 % of control"}, {"measurement": "T/C", "setting": "dose: 20.0 mg/kg/injection, schedule: Q04DX003 (ip), vehicle: saline with Tween-80, evaluated on day 45", "value": "152, 160, 166, 191, 198, 203 % of control (2×)"}, {"measurement": "T/C", "setting": "dose: 20.0 mg/kg/injection, schedule: Q04DX003 (ip), vehicle: saline with Tween-80, evaluated on day 47", "value": "168, 182, 204, 218 % of control"}, {"measurement": "T/C", "setting": "dose: 20.0 mg/kg/injection, schedule: Q04DX003 (ip), vehicle: saline with Tween-80, evaluated on day 48", "value": "155 % of control"}, {"measurement": "T/C", "setting": "dose: 20.0 mg/kg/injection, schedule: Q04DX003 (ip), vehicle: saline with Tween-80, evaluated on day 60", "value": "164, 202, 221 % of control"}, {"measurement": "survivor count", "setting": "dose: 20.0 mg/kg/injection, schedule: Q04DX003 (ip), vehicle: saline", "value": "8 of 8"}, {"measurement": "survivor count", "setting": "dose: 20.0 mg/kg/injection, schedule: Q04DX003 (ip), vehicle: water", "value": "5 of 8, 6 of 8, 7 of 8"}, {"measurement": "T/C", "setting": "dose: 22.0 mg/kg/injection, schedule: Q04DX003 (oral), vehicle: other", "value": "126 % of control"}, {"measurement": "survivor count", "setting": "dose: 24.0 mg/kg/injection, schedule: Q04DX003 (ip), vehicle: clinical formulation", "value": "3 of 8"}, {"measurement": "survivor count", "setting": "dose: 25.0 mg/kg/injection, schedule: Q01DX001 (ip), vehicle: Klucel (hydroxypropylcellulose) (HPC)", "value": "3 of 6"}, {"measurement": "T/C", "setting": "dose: 25.0 mg/kg/injection, schedule: Q04DX002 (oral), vehicle: other", "value": "132 % of control"}, {"measurement": "T/C", "setting": "dose: 30.0 mg/kg/injection, schedule: Q04DX003 (ip), vehicle: saline with Tween-80, evaluated on day 44", "value": "259 % of control"}, {"measurement": "T/C", "setting": "dose: 30.0 mg/kg/injection, schedule: Q04DX003 (ip), vehicle: saline with Tween-80, evaluated on day 45", "value": "149, 203, 216 % of control"}, {"measurement": "T/C", "setting": "dose: 30.0 mg/kg/injection, schedule: Q04DX003 (ip), vehicle: saline with Tween-80, evaluated on day 47", "value": "196, 213, 238, 240 % of control"}, {"measurement": "T/C", "setting": "dose: 30.0 mg/kg/injection, schedule: Q04DX003 (ip), vehicle: saline with Tween-80, evaluated on day 48", "value": "155 % of control"}, {"measurement": "T/C", "setting": "dose: 33.0 mg/kg/injection, schedule: Q04DX003 (oral), vehicle: other", "value": "126 % of control [4 of 5 alive]"}, {"measurement": "T/C", "setting": "dose: 37.5 mg/kg/injection, schedule: Q04DX002 (oral), vehicle: dextrose", "value": "127 and 139 % of control"}, {"measurement": "T/C", "setting": "dose: 40.0 mg/kg/injection, schedule: Q01DX001 (ip), vehicle: saline with Tween-80", "value": "141 % of control"}, {"measurement": "survivor count", "setting": "dose: 40.0 mg/kg/injection, schedule: Q04DX002 (ip), vehicle: clinical formulation", "value": "0 of 6"}, {"measurement": "survivor count", "setting": "dose: 40.0 mg/kg/injection, schedule: Q04DX002 (ip), vehicle: other", "value": "0 of 6, 1 of 6 (2×), 1 of 5, 2 of 6, 2 of 5, 3 of 6, 3 of 5, 4 of 5, 5 of 6 (2×), 6 of 6"}, {"measurement": "T/C", "setting": "dose: 40.0 mg/kg/injection, schedule: Q04DX002 (ip), vehicle: saline with Tween-80", "value": "194, 201, 209, 238, 245 % of control"}, {"measurement": "survivor count", "setting": "dose: 40.0 mg/kg/injection, schedule: Q04DX003 (ip), vehicle: other", "value": "3 of 6"}, {"measurement": "survivor count", "setting": "dose: 50.0 mg/kg/injection, schedule: Q01DX001 (ip), vehicle: Klucel (hydroxypropylcellulose) (HPC)", "value": "4 of 6"}, {"measurement": "survivor count", "setting": "dose: 100.0 mg/kg/injection, schedule: Q01DX001 (ip), vehicle: Klucel (hydroxypropylcellulose) (HPC)", "value": "1 of 6"}, {"measurement": "survivor count", "setting": "dose: 100.0 mg/kg/injection, schedule: Q04DX002 (oral), vehicle: other", "value": "4 of 6 and 5 of 6"}, {"measurement": "survivor count", "setting": "dose: 150.0 mg/kg/injection, schedule: Q04DX002 (oral), vehicle: dextrose", "value": "3 of 6 and 5 of 6"}, {"measurement": "survivor count", "setting": "dose: 200.0 mg/kg/injection, schedule: Q04DX002 (oral), vehicle: other", "value": "5 of 6 and 6 of 6"}, {"measurement": "survivor count", "setting": "dose: 300.0 mg/kg/injection, schedule: Q04DX002 (oral), vehicle: dextrose", "value": "0 of 6"}]}]}
